Measured values reported in PubChem BioAssay AID2685 (National Center for Advancing Translational Sciences (NCATS), 2010).
Among all 320,000 compounds or so, about 2,100 (0.66%) were called active. This list was built around the results that the source calls inconclusive (neither active nor inactive); the mix of calls is not that of the screen. Calls come from the whole dose curve; as a rule, active = well fitted inhibition curve with a large enough effect in the signal ratio, with a control signal flat (not every such curve was filed as active); inconclusive = small, poorly fitted or top-dose-only effect, or effect the other way, or a change in a side signal; inactive = flat fitted curve, though single readings scatter; the % refers to the signal ratio. Potencies beside an inconclusive call are fits to weak or partial responses and may not hold up.

Assay: qHTS Assay for Lipid Storage Modulators in Drosophila S3 Cells
Settings: BODIPY lipid droplet fluorescence, 18-24 h, cells fed with added oleic acid; lipid storage change, negative = inhibition: at 46.1 µM (top of the series) unless noted
Procedure, shortened: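 Laser-scanning cytometry quantifies lipid droplet accumulation (500–530 nm total intensity; droplet/cell object ratio) in oleic acid-fed (400 uM added) Drosophila S3 cells treated with a concentration series. 20 uM Triacsin C defined 100% inhibition.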
% is set by controls: 0 for no effect and ±100 for the full control effect; potency is the fitted concentration of half-maximal effect.

Lipid storage change, negative = inhibition, inconclusive:
Cc1cn(-c2ccccc2)c(C)c1/C=N\Nc1nc(N2CCOCC2)nc(N2CCOCC2)n1 -14.2%, COc1ccc(OC)c2c1sc(=NC(=O)C1COc3ccccc3O1)n2C (stereo not given) 16.4%, Cc1ccc2nc(SCC(=O)NCc3ccccc3)nc(=O)n2c1 -62.2%, COC(=O)c1ccccc1NC(=O)CSc1nc(O)c(-c2ccccc2)c(=O)[nH]1 15.3%, CC(=O)c1ccc(OCC(O)CN2C(C)(C)CC(O)CC2(C)C)cc1 (stereo not given) -18.2%, O=C(COc1cc(Cl)ccc1Cl)N1CCNC1=O, CCN(CC)c1ccc(N)cc1S(=O)(=O)Nc1ccccc1OC -11.1%, CCN(CC(=O)NCc1ccc(Cl)cc1)C(=O)CSCC(=O)Nc1ccc(C)cc1, CCCCn1nc2cc(C(=O)N(CC)c3ccc(OC)cc3)ccc2c1OCC 39%, CCCCn1c(N)c(Sc2ccc([N+](=O)[O-])cc2)c(=O)[nH]c1=O -30.8%, CCOCCn1c(SC)nc2c1c(=O)[nH]c(=O)n2C 47.1%, CCN(Cc1ccncc1)Cc1nc(Cc2ccccc2Cl)no1 4.37%, CSc1nc2c(c(=O)[nH]1)C(c1ccncc1)C(C(=O)OC(C)C)=C(C)N2 (stereo not given) 47.2%, CN/N=C/c1ccc(C#N)cc1 9.86%, Cc1cc(N2CCN(C)CC2)nc2ccc(NC(=S)NCCN3CCc4ccccc4C3)cc12 34.7%, COc1ccc(S(=O)(=O)Nc2ccc(-c3ccc4nncn4n3)cc2)c(OC)c1, Cc1ccc(S(=O)(=O)CCC(=O)OCC(=O)NC(C)c2ccccc2)cc1 (stereo not given) 0.703%, COc1ccccc1C(=O)N1CCN(c2ccc(N3CCOCC3)nn2)CC1 27.4%, Nc1cccc(S(=O)(=O)c2ccc(N)c(N)c2)c1 -5.89%, CCOC(=O)CNC(=O)CN1C(=O)CC(c2ccco2)Sc2ccccc21 (stereo not given) 2.04%, O=C(CCn1cncn1)N1CCN(S(=O)(=O)c2ccc(Cl)cc2)CC1 91.7%, CC(=O)n1cc(/C=N/NC(=O)c2ccc(Cl)cc2)c2ccccc21 -35.9%, CCc1ccccc1NC(=O)Cn1nnc(C(=O)NCc2cccs2)c1N 38.6%, Cc1cccc(-c2c(NC(=O)c3ccco3)oc3c(C)cccc3c2=O)c1 228%, COc1ccc(/C=N/Nc2cc(C)nc(N3CCOCC3)n2)cc1 44.2%, Cn1ncc2c(Nc3cccc(Cl)c3)nc(Nc3cccc(Cl)c3)nc21 -74.6%, Cc1nnc(SCC(=O)Nc2nc3c(s2)CC(C)CC3)s1 (stereo not given) 122%, COc1cccc(-n2c(CN3CCN(c4ccc(C)cc4)C(C)C3)nc3ccc([N+](=O)[O-])cc3c2=O)c1 (stereo not given) 36.7%, COCCCNC(=O)C1CCC(CNS(=O)(=O)c2ccc(C)cc2)CC1 (stereo not given) -20.1%, CC(=O)Nc1ccc(S(=O)(=O)N2CCN(C(=O)c3ncoc3-c3cccc(C)c3)CC2)cc1 -35.2%, CN(C)C(CNC(=O)NC1CCCCC1)c1cccnc1 (stereo not given) 23.8%, Cc1cc(C(F)(F)F)n2nc(C)c(-c3ccc(Cl)cc3)c2n1 28.1%, CC(C)CC(=O)Nc1ccc2oc(-c3ccncc3)nc2c1 3.69%, O=C(N/N=C/c1cccnc1)c1ccc(NC(=O)c2ccccc2Cl)cc1 -68.6%, COc1ccc(/C=C2\SC(=O)N(CCNC(=O)CN3C(=O)NC4(CCCC4)C3=O)C2=O)cc1 -65.1%, O=C1C2C3C=CC(CNS(=O)(=O)c4ccccc4)(O3)C2C(=O)N1c1ccc(Cl)cc1 (stereo not given) -26.8%, CC(C)/C=C/CN1CCCC(N2CCN(c3cccc(Cl)c3)CC2)C1 (stereo not given) -25.2%, CC1CCN(S(=O)(=O)c2ccc(NC(=O)N3c4ccccc4Sc4ccccc43)cc2)CC1 22.1%, COC(=O)CC1NCCc2cc(OC)c(OC)cc21 (stereo not given) -14.8%, COc1ccccc1-n1c(C)c(C(=O)O)c2cc(OC)c3ccccc3c21 16.1%, COC(OC)c1ccnc(-c2ccc(OC(=O)c3ccc(F)cc3)cc2)n1 -24.4%, CCOC(=O)c1ccc(N2CSC3=C(C#N)C(c4ccc(OC)cc4OC)CC(=O)N3C2)cc1 (stereo not given) -9.32%, Cn1c(NNC(=O)/C=C/c2ccc3c(c2)OCO3)cc(=O)n(C)c1=O 30.9%, Cc1ccccc1CNC(=O)c1ccccc1N 38.3%, CC1CC(C)(C)NCCNC(C)CC(C)(C)NCCN1 (stereo not given) -11.5%, CC(NC(=O)c1ccc(Br)cc1)c1ccccc1 (stereo not given) -0.389%, CCc1ccc(C2CC(c3cccc(Cl)c3)n3nc(N)nc3N2)cc1 (stereo not given) 32.4%, O=C(COC(=O)c1cccc(N2C(=O)C3CC=CCC3C2=O)c1)c1ccccc1 (stereo not given) -100%

Potency, inconclusive:
COc1ccccc1NC(=O)CC1S/C(=N/N=C(\C)C2CCCCC2)NC1=O (stereo not given) 29.1 µM [falling, single point], Cc1cc(C(=O)Nc2ccc3ccccc3c2)c(C)o1 7.31 µM [falling, partial curve], Cc1ccc(C)c(NC(=O)C2CC(Cl)=CCC2C(=O)O)c1 (stereo not given) 6.51 µM [activator, partial curve, poor fit], CCN1C(=O)[C@@H]2[C@H](C1=O)[C@@H]1C(=O)Nc3ccccc3C(=O)N1[C@@H]2c1ccc(Br)cc1 0.0146 µM [falling, full curve, poor fit], N#CCCSc1ncnc2c1oc1ccccc12 4.61 µM [activator, partial curve], CCCC(C)C(=O)Nc1nc(C)c(-c2csc(Nc3ccc(Cl)cc3)n2)s1 (stereo not given) 29.1 µM [falling, single point], COc1ccccc1NC(=O)C(C)N(C)CCOc1ccccc1 (stereo not given) 0.146 µM [activator, full curve, poor fit], COc1cc(-c2nc(C(=O)NC3CCN(Cc4ccccc4)CC3)cc3c2[nH]c2ccccc23)cc(OC)c1OC 5.8 µM [falling, full curve], Cc1ccc2[nH]c(=O)c(CN(CCc3ccccc3)C(=O)N3CCOCC3)cc2c1 0.82 µM [activator, single point], c1ccc(-n2c(SCc3nc(-c4cccs4)no3)nnc2-c2ccco2)cc1 0.291 µM [activator, full curve, poor fit], O=C(N/N=C/c1ccc(O)c([N+](=O)[O-])c1)C(O)(c1ccccc1)c1ccccc1 0.731 µM [falling, full curve], CCN1C(c2ccc(F)cc2)=CS/C1=C(\C#N)c1nnc2n1-c1ccccc1SC2 0.411 µM [activator, full curve, poor fit], Cc1ccc(S(=O)(=O)N2CCN(C(=O)COC(=O)c3ccccn3)CC2)c(C)c1 29.1 µM [activator, single point], COC(=O)C1C(=O)c2c([nH]c(C(=O)OC3CCCCC3)c2C)CC1C (stereo not given) 6.51 µM [falling, partial curve], COc1cc(NC(=O)Cc2ccc(Cl)cc2)ccc1NC(=O)c1ccco1 11.6 µM [falling, partial curve], CCCN(CCC)C(=O)CSc1ncccc1C(=O)O 0.517 µM [falling, single point], O=C(NCCOc1ccc(F)cc1)C1CCC(=O)N(CC2CCCCC2)C1 (stereo not given) 0.146 µM [falling, full curve, poor fit], CC1=C(C(=O)OCC2CCCCC2)C(c2ccc(F)cc2)NC(=O)N1 (stereo not given) 25.9 µM [falling, single point], Cc1ccc(NNC(=O)c2ccno2)cc1Cl 18.4 µM [activator, partial curve], CC1=C(C(=O)OCC(C)C)C(c2ccsc2)C2=C(CCCC2=O)N1 (stereo not given) 23.1 µM [activator, partial curve], COc1ccccc1NS(=O)(=O)c1cc(NC(=O)Nc2cccc(C)c2)ccc1N1CCCCC1 6.51 µM [falling, single point], CC(Sc1nnc(C2CC2)n1C)C(=O)Nc1ccc2c(c1)CCC2 (stereo not given) 0.146 µM [falling, partial curve], CCCOc1ccccc1C1NC(=O)NC(C)=C1C(=O)OCCOC(C)C (stereo not given) 3.26 µM [activator, single point], O=C(Nc1ccc(F)c(F)c1)NC1CCCCC1 0.0146 µM [falling, full curve, poor fit], CC(CCc1ccccc1)NC(=O)Cn1cccc1C(=O)c1ccccc1 (stereo not given) 6.51 µM [activator, partial curve, poor fit]

Potency, active:
COc1cccc(-c2csc3nc[nH]c(=O)c23)c1 20.6 µM

outcome, inactive:
O=C(O)C1CCCN(S(=O)(=O)c2ccc(-c3ccc(=O)[nH]n3)s2)C1 (stereo not given) inactive [at 46.1 µM]
